No constants are given. Whether binding was seen depends on the method and setting. Binding seen in cells or lysates may run through a third protein. A yes stands for co-enrichment or nearness to the bait. Other partners may have been found.
T1: amine oxidase, copper containing 3 protein (AOC3) (human) (UniProt Q16853)
T1 sequence (looked up): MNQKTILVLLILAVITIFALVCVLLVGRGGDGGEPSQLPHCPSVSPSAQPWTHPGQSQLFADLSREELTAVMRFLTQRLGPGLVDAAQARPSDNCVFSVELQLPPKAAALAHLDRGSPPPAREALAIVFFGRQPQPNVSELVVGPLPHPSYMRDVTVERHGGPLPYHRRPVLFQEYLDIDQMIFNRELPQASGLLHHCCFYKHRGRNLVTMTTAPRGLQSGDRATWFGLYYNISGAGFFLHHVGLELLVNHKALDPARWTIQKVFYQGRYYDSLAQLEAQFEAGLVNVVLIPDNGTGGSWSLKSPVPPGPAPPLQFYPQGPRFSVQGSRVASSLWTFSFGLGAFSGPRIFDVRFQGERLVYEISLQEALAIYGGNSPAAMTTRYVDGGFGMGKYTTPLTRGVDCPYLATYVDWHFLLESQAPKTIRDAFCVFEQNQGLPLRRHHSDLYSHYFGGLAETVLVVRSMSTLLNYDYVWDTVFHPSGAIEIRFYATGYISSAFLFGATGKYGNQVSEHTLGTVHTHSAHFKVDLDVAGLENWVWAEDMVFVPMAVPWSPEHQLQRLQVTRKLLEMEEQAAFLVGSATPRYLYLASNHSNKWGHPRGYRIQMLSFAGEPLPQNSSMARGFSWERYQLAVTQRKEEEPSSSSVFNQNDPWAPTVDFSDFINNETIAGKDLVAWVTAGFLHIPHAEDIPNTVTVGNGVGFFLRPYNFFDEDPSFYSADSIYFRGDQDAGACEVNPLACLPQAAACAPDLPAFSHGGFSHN

The chains behind the UniProt entries cited, without tags or fusion partners. Where a name states a change or a piece, a line headed by the entry shows the natural chain unless it says otherwise.
UniProt P12109: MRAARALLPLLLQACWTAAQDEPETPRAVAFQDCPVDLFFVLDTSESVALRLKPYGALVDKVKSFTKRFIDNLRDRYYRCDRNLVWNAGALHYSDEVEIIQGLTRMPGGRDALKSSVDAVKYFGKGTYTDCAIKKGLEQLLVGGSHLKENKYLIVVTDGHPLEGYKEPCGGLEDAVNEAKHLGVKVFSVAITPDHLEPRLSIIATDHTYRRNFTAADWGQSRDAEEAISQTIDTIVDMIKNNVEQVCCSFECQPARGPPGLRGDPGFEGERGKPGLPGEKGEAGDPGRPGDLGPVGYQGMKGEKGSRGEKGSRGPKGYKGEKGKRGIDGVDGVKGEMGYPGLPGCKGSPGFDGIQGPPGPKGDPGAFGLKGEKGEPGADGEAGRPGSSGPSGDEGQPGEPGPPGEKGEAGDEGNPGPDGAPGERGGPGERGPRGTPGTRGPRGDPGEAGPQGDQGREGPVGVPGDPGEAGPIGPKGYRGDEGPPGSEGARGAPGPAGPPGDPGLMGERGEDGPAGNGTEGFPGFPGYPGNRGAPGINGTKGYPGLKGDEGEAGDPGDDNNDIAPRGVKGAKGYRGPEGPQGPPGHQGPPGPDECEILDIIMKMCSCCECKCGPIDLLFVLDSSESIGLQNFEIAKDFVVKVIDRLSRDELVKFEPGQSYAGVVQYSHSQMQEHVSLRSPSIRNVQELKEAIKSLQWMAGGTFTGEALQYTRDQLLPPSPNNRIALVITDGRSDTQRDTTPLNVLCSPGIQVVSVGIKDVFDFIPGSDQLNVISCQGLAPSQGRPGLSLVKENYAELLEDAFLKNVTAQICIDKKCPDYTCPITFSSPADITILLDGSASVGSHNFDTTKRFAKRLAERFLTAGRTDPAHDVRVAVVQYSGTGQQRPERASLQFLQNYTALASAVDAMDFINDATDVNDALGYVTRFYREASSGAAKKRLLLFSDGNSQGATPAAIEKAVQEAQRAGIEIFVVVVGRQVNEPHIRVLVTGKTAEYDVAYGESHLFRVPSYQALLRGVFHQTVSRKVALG


How the values were obtained:
[1] = target: T1, amine oxidase, copper containing 3 protein (AOC3) (human); assay: target identification by immunoprecipitation and mass spectrometry
[2] = target: T1, amine oxidase, copper containing 3 protein (AOC3) (human); assay: immunoprecipitation of SGBS cell EVs with antibody on CNBr-activated sepharose beads, eluate identified by mass spectrometry
[3] = target: Collagen Type VI alpha 1/2/3 (COL6A1/2/3) (human) (UniProt P12109); assay: target identification by immunoprecipitation and mass spectrometry
[4] = target: Collagen Type VI alpha 1/2/3 (COL6A1/2/3) (human) (UniProt P12109); assay: immunoprecipitation of SGBS cell EVs with antibody on CNBr-activated sepharose beads, eluate identified by mass spectrometry

Row | Binder | binding [1] | binding [2] | binding [3] | binding [4]
1 | antibody 15G1 (antibody, rat IgG2a, V domains shown) VH: EVQILETGGGLVKPGGSLRLSCATSGFNFNDYFMNWVRQAPGKGLEWVAQIRNKHYNYATYYGESLEGRVTISRDDSKSNVYLQVNSLRPEDTAIYYCSRSSYLRYFDFWGPGTMVTVSS VL: DIQMTQSPASLSASLEEIVTITCQASQDIGNWLAWYQQKPGKSPQLLIYDATTLADGVPSRFSGSRSGTQFSLKISRLQVEDIGIYYCQQASSAPWTFGGGTNLELKR | binds | binds |  | 
2 | antibody 14H5 (antibody, rat IgG2b, V domains shown) VH: QVQLQQSGAELAKPGSSVKISCKASGFTFTGYYISWIKQTTGQGLDYIGYINTGSGGTNYNEKFKGKATLTVDKSSSTAFMQLSSLTPDDSAVYYCARTYWRRYFDYWGQGVMVTVSS VL: DIQMTQSPASLSVSLEKIVTITCQASQDIGNWLAWYQQKPGKSPQLLIYGATSLADGVPSRFSGSRSGTQYSLKISRLQVEDIGIYYCQQASSAPLTFGSGTKLEIKR | binds | binds |  | 
3 | antibody 23A11 (antibody, V domains shown) VH: EVKLLESGGGLVQPGGSMRLSCAASGFTFTDFYMNWIRQPSGKAPEWLGFIRNKANGYTTESNPSVKGRFTISRDNTQSMLYLQMNTLRVEDTATYYCARGGFDVYSGLLPDYWGQGVMVTVSS VL: DIVMTQSPSSLAVSAGETVTINCKSSQNLLYRGNQKNYLAWYQQKPGQSPKLLIFWTSTRQPGVPDRFIGSGSGTDFTLTISSVQAEDLAIYYCQQYYGTPFTFGSGTKLEIR |  |  | binds | binds

— patent US20190391163A1
